No constants are given. Whether binding was seen depends on the method and setting. Binding seen in cells or lysates may run through a third protein. Some results given as binding are weak or reduced against the parent protein; the word gives no strength. One block for each binder: values may come before it.
Tests used:
[1] = biological target: His-tagged Fc/sE-cad chimera (recombinant soluble E-cadherin fused to Fc) (UniProt P12830); assay: pull-down; HUVEC lysate (1 mg; 50 mM NaH2PO4, 300 mM NaCl, 10 mM imidazole, 1% NP-40, pH 8.0) incubated with 10 μg/mL His-tagged sE-cad/Fc for 6 h at 4 °C, then Ni-NTA for 1.5 h; washed with 20 mM imidazole, eluted with 500 mM imidazole; western blot; only the target purified
[2] = biological target: NFκB p65 (human (endogenous in HUVEC)), Q04206; assay: co-IP; HUVEC nuclear extracts (1 mg; 2 mM EDTA, 50 mM Tris pH 7.5, 150 mM NaCl, 1% NP-40), with or without exosome treatment (25 μg/mL); immunoprecipitated with anti-p65 or mouse IgG overnight at 4 °C, and the reciprocal experiment; western blot; conditions: remark: other sources report otherwise

Sequences of proteins named here, by UniProt entry; tags and fusion partners are left off. A change or cut given only in a name is not applied to a line headed by its entry. Residues count along the entry.
UniProt P12830, residues 155-709: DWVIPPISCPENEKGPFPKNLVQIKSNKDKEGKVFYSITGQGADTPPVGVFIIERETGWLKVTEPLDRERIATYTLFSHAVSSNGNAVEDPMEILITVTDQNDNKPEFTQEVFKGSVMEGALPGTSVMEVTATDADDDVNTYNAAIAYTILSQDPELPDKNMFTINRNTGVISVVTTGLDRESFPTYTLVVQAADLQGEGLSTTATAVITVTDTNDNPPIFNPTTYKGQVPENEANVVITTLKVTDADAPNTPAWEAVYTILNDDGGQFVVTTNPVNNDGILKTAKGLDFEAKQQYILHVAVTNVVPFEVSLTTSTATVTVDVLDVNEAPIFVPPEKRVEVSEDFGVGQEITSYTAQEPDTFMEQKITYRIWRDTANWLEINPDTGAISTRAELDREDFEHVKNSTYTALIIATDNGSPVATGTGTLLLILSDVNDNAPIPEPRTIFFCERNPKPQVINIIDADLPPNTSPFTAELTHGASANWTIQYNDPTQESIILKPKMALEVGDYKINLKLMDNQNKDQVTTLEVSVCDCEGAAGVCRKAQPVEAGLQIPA

binding [1]: binds
B1: VE-cadherin (protein, UniProt P33151 48-784)
chain: DWIWNQMHIDEEKNTSLPHHVGKIKSSVSRKNAKYLLKGEYVGKVFRVDAETGDVFAIERLDRENISEYHLTAVIVDKDTGENLETPSSFTIKVHDVNDNWPVFTHRLFNASVPESSAVGTSVISVTAVDADDPTVGDHASVMYQILKGKEYFAIDNSGRIITITKSLDREKQARYEIVVEARDAQGLRGDSGTATVLVTLQDINDNFPFFTQTKYTFVVPEDTRVGTSVGSLFVEDPDEPQNRMTKYSILRGDYQDAFTIETNPAHNEGIIKPMKPLDYEYIQQYSFIVEATDPTIDLRYMSPPAGNRAQVIINITDVDEPPIFQQPFYHFQLKENQKKPLIGTVLAMDPDAARHSIGYSIRRTSDKGQFFRVTKKGDIYNEKELDREVYPWYNLTVEAKELDSTGTPTGKESIVQVHIEVLDENDNAPEFAKPYQPKVCENAVHGQLVLQISAIDKDITPRNVKFKFILNTENNFTLTDNHDNTANITVKYGQFDREHTKVHFLPVVISDNGMPSRTGTSTLTVAVCKCNEQGEFTFCEDMAAQVGVSIQAVVAILLCILTITVITLLIFLRRRLRKQARAHGKSVPEIHEQLVTYDEEGGGEMDTTSYDVSVLNSVRRGGAKPPRPALDARPSLYAQVQKPPRHAPGAHGGPGEMAAMIEVKKDEADHDGDGPPYDTLHIYGYEGSESIAESLSSLGTDSSDSDVDYDFLNDWGPRFKMLAELYGSDPREELLY

binding [2]: no binding
B2: β-catenin, P35222 1-781 (protein)
chain: MATQADLMELDMAMEPDRKAAVSHWQQQSYLDSGIHSGATTTAPSLSGKGNPEEEDVDTSQVLYEWEQGFSQSFTQEQVADIDGQYAMTRAQRVRAAMFPETLDEGMQIPSTQFDAAHPTNVQRLAEPSQMLKHAVVNLINYQDDAELATRAIPELTKLLNDEDQVVVNKAAVMVHQLSKKEASRHAIMRSPQMVSAIVRTMQNTNDVETARCTAGTLHNLSHHREGLLAIFKSGGIPALVKMLGSPVDSVLFYAITTLHNLLLHQEGAKMAVRLAGGLQKMVALLNKTNVKFLAITTDCLQILAYGNQESKLIILASGGPQALVNIMRTYTYEKLLWTTSRVLKVLSVCSSNKPAIVEAGGMQALGLHLTDPSQRLVQNCLWTLRNLSDAATKQEGMEGLLGTLVQLLGSDDINVVTCAAGILSNLTCNNYKNKMMVCQVGGIEALVRTVLRAGDREDITEPAICALRHLTSRHQEAEMAQNAVRLHYGLPVVVKLLHPPSHWPLIKATVGLIRNLALCPANHAPLREQGAIPRLVQLLVRAHQDTQRRTSMGGTQQQFVEGVRMEEIVEGCTGALHILARDVHNRIVIRGLNTIPLFVQLLYSPIENIQRVAAGVLCELAQDKEAAEAIEAEGATAPLTELLHSRNEGVATYAAAVLFRMSEDKPQDYKKRLSVELTSSLFRTEPMAWNETADLGLDIGAQGEPLGYRQDDPSYRSFHSGGYGQDALGMDPMMEHEMGGHHPGADYPVDGLPDLGHAQDLMDGLPPGDSNQLAWFDTDL
